Assay results taken from the supplement of paper PMC7666118.
Some of the results follow.

Chains of the proteins cited; added tags and fusions are not shown. Lines headed by an entry give the natural chain unless they say otherwise; changes in a name come on top.
UniProt O43181, whole entry: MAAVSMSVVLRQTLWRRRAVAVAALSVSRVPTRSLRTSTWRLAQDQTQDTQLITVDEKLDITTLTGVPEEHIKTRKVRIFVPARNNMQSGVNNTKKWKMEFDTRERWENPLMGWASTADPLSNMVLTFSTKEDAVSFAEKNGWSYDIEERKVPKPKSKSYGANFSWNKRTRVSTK
UniProt P03891, whole entry: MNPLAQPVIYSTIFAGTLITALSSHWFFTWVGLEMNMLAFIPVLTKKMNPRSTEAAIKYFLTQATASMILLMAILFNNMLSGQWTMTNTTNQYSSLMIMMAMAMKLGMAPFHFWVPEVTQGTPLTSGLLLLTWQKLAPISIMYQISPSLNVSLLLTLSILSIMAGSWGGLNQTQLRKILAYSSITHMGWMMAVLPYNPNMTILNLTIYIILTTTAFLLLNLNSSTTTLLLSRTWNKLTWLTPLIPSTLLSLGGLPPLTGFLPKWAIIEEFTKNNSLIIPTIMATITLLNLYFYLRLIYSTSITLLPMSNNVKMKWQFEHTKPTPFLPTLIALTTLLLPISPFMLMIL
UniProt Q8N8Q9: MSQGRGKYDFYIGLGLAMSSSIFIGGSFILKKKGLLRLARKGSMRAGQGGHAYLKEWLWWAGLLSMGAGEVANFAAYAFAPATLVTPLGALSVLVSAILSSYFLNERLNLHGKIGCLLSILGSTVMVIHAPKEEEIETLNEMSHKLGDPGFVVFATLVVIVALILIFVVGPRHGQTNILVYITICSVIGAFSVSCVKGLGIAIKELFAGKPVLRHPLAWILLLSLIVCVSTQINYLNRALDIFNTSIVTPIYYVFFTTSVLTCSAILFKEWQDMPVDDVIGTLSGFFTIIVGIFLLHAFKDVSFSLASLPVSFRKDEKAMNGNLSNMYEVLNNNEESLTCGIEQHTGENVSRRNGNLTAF
UniProt Q8WUY8: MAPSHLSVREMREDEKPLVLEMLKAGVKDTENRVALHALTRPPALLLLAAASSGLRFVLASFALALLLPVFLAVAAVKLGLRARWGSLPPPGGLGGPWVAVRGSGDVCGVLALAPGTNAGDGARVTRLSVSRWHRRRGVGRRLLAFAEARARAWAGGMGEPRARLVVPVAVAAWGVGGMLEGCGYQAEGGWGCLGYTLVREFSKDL
UniProt Q9UFN0: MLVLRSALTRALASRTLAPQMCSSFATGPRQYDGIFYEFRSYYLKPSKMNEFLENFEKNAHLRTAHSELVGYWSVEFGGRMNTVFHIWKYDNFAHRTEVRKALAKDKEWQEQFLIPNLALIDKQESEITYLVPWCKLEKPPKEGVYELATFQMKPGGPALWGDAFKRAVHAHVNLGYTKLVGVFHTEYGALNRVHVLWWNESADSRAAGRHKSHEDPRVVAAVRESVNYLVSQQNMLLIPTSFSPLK
UniProt Q13126: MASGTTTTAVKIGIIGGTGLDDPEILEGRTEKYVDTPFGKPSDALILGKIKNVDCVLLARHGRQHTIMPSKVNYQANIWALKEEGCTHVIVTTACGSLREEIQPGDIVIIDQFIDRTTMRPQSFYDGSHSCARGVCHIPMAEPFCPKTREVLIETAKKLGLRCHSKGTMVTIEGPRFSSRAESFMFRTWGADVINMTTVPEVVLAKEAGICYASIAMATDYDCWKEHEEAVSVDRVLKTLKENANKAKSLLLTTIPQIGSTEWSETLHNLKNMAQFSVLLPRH
UniProt Q96H55, whole entry: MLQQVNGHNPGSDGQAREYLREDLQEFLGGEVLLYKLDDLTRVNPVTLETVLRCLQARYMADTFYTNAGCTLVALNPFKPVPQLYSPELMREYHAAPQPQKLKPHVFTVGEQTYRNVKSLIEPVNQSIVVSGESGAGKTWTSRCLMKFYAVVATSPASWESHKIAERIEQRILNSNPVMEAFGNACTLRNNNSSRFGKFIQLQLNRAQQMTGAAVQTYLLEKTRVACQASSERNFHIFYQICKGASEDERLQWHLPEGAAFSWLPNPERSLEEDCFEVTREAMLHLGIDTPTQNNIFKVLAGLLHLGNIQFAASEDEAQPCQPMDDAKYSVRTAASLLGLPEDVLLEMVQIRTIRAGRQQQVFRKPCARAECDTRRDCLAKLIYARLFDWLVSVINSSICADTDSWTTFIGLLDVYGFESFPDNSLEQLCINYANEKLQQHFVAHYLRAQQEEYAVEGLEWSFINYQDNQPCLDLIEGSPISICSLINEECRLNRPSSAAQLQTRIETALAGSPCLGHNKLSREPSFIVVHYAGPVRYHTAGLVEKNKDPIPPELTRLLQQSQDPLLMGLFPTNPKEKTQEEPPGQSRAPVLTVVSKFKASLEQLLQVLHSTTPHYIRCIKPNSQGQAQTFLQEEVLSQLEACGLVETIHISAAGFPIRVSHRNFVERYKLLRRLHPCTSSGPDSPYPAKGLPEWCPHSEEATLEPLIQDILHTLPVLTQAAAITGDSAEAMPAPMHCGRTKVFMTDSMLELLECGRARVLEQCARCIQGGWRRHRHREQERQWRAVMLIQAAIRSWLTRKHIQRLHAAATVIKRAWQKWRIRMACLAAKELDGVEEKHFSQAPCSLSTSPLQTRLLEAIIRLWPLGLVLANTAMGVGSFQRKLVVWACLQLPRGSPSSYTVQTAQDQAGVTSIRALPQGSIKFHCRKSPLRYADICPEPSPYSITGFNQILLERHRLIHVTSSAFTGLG
UniProt P55160: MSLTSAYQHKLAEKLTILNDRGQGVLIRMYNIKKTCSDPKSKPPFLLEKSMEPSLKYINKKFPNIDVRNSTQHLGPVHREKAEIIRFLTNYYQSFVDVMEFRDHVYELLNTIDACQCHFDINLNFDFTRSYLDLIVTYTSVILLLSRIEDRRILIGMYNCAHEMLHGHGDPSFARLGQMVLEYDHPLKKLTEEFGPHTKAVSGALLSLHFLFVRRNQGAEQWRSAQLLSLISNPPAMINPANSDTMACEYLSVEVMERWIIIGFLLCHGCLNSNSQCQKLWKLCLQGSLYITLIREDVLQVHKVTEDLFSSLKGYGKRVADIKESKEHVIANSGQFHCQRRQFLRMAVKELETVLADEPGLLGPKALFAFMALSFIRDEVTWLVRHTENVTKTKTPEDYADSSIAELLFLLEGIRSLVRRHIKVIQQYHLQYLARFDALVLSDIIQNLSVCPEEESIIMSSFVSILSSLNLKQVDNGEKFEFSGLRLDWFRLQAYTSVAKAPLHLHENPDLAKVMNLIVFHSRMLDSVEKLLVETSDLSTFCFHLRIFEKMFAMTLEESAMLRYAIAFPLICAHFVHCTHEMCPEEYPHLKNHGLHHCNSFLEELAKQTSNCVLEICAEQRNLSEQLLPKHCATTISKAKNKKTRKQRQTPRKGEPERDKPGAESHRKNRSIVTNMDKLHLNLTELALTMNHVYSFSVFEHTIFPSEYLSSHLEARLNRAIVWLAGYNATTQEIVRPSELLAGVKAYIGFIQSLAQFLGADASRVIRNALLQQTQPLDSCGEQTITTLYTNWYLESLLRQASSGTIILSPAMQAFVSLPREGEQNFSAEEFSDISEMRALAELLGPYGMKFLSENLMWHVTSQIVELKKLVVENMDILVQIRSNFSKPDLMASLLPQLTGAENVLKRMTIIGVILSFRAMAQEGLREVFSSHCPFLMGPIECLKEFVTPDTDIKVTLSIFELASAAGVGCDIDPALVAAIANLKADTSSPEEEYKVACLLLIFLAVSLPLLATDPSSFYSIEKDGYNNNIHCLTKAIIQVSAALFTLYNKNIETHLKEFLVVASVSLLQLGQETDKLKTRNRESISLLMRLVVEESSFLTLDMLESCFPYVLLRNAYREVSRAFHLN
UniProt P20585: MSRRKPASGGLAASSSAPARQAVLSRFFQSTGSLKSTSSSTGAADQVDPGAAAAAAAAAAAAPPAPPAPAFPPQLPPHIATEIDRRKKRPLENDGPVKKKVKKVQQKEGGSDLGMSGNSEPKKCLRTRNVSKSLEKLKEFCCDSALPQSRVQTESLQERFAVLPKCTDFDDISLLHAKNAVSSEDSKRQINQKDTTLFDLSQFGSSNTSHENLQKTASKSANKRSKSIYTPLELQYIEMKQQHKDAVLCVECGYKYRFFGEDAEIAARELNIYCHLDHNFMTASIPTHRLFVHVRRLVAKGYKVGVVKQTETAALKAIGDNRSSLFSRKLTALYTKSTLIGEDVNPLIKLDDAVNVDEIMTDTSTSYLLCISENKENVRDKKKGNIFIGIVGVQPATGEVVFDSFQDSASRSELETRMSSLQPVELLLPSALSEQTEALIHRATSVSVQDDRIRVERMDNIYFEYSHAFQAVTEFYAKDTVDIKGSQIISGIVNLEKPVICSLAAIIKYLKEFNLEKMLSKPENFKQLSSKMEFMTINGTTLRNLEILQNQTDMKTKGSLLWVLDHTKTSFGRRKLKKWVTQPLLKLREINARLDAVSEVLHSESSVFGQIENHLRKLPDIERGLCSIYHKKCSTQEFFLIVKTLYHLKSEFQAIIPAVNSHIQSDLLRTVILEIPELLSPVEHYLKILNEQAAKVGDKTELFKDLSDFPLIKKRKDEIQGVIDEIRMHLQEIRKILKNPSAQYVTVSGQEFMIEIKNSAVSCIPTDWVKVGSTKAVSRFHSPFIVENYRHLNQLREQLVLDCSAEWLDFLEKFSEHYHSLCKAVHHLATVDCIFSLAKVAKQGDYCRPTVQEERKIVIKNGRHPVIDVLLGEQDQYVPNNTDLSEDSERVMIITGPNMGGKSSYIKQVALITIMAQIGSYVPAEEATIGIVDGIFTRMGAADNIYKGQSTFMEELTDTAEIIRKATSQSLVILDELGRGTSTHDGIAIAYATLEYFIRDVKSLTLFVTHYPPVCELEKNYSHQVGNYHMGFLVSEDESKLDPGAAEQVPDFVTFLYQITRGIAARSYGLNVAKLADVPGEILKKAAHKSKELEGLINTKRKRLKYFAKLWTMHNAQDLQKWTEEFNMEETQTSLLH
UniProt P43246, whole entry: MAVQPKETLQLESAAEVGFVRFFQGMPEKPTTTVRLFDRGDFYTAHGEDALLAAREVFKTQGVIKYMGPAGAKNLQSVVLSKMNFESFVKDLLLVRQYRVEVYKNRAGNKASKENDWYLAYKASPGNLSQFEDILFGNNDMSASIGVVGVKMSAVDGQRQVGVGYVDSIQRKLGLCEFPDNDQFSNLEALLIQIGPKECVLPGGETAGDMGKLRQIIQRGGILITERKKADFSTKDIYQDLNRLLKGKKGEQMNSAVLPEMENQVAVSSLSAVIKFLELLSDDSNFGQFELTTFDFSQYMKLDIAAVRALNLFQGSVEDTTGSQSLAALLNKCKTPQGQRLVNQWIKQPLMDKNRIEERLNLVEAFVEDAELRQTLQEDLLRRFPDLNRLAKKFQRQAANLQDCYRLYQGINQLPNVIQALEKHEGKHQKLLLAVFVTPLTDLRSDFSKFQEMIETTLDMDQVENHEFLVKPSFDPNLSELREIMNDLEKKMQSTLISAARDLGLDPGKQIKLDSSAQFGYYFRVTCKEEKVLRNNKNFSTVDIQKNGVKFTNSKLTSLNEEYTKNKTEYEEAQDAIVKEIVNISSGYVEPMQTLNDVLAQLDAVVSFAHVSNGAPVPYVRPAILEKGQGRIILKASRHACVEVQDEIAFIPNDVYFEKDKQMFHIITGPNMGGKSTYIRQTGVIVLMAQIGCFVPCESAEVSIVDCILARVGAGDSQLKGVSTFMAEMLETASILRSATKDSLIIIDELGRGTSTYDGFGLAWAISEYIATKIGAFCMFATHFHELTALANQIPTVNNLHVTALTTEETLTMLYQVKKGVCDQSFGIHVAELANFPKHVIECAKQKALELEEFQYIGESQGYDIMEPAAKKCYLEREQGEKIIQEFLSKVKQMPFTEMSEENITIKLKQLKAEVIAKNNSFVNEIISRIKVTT
UniProt Q86UE4: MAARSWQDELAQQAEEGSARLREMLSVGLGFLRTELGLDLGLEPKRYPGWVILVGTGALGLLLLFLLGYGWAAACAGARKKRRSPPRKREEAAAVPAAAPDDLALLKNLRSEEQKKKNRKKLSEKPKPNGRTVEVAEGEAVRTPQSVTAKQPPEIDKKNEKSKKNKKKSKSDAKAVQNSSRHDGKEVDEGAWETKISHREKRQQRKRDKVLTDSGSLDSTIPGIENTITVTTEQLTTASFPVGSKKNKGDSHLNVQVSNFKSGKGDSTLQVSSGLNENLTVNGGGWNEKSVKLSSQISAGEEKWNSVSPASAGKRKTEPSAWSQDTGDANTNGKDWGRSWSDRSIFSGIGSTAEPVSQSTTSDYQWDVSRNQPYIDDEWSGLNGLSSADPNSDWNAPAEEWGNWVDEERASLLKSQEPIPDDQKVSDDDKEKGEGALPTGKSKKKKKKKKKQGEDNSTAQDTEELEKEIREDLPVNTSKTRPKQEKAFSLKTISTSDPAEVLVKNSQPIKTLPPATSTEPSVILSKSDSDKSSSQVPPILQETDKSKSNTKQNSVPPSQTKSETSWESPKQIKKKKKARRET
UniProt Q86Y39, whole entry: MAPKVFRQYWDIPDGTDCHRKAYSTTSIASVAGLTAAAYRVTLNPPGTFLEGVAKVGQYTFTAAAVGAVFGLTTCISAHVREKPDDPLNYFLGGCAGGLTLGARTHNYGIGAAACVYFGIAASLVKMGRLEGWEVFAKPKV

Compound: COc1ccc(Cn2ccc3ccc(C(=O)NO)cc32)cc1
Assay: dose-dependent thermal stabilisation call (2D-TPP, DLPTP, 10% FDR) (binary (1 = stabilised)); higher = stabilised by the compound
Conditions: system: HL-60 intact cells; concentration range 0.04-10 µM

Target	dose-dependent thermal stabilisation call
NDUFS4 (UniProt O43181)	inactive: 0
ND2 (UniProt P03891)	inactive: 0
NDFIP2 (UniProt Q9NV92)	inactive: 0
NAPA (UniProt P54920)	inactive: 0
NOB1 (UniProt Q9ULX3)	inactive: 0
NIPA2 (UniProt Q8N8Q9)	inactive: 0
NDUFA9 (UniProt Q16795)	inactive: 0
NAT14 (UniProt Q8WUY8)	inactive: 0
NAB2 (UniProt Q15742)	inactive: 0
MYO9B (UniProt Q13459)	inactive: 0
NASP (UniProt P49321)	inactive: 0
NACA	inactive: 0
NIPSNAP3A (UniProt Q9UFN0)	inactive: 0
MTAP (UniProt Q13126)	inactive: 0
MYO19 (UniProt Q96H55)	inactive: 0
MUDENG (UniProt Q9H0R1)	inactive: 0
NCAPH (UniProt Q15003)	inactive: 0
MTMR4 (UniProt Q9NYA4)	inactive: 0
NCBP1 (UniProt Q09161)	inactive: 0

Some of the entries so far, bar-delimited.
Target | dose-dependent thermal stabilisation call
MTMR4 (UniProt Q9NYA4) | inactive: 0
NCBP1 (UniProt Q09161) | inactive: 0

(cont.)

Target	dose-dependent thermal stabilisation call
NCKAP1L (UniProt P55160)	inactive: 0
MSH3 (UniProt P20585)	inactive: 0
NMI (UniProt Q13287)	inactive: 0
MYD88 (UniProt Q99836)	inactive: 0
MTSS1L (UniProt Q765P7)	inactive: 0
MTX2 (UniProt O75431)	inactive: 0
MSH2 (UniProt P43246)	inactive: 0
NAT11 (UniProt Q86UY6)	inactive: 0
NCOA5 (UniProt Q9HCD5)	inactive: 0
MTDH (UniProt Q86UE4)	inactive: 0
NAF1 (UniProt Q96HR8)	inactive: 0
NOL6 (UniProt Q9H6R4)	inactive: 0
NFKBIE (UniProt O00221)	inactive: 0
NDUFA11 (UniProt Q86Y39)	inactive: 0
NDUFB10 (UniProt O96000)	inactive: 0
NDRG1 (UniProt Q92597)	inactive: 0
NGRN (UniProt Q9NPE2)	inactive: 0
NCDN (UniProt Q9UBB6)	inactive: 0
